According to US20230158034A1, “CO-TREATMENT WITH CDK4/6 AND CDK2 INHIBITORS TO SUPPRESS TUMOR ADAPTATION TO CDK2 INHIBITORS” (Pfizer Inc., priority 2020, published 2023):
No constants are given. Whether binding was seen depends on the method and setting. In cells and extracts the contact can be indirect. Some results given as binding are weak or reduced against the parent protein; the word gives no strength.

Chains of the proteins cited; added tags and fusions are not shown. Residues count along the entry.
UniProt P11802, residues 2-303: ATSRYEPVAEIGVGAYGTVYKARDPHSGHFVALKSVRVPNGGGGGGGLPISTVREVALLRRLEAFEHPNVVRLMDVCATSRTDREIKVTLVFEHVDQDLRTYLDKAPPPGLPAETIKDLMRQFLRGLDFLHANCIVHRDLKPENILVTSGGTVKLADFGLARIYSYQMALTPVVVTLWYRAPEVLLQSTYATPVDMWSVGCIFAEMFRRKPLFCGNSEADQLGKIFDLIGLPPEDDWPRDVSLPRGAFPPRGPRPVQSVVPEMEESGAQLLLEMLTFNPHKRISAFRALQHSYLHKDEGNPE
UniProt Q00534: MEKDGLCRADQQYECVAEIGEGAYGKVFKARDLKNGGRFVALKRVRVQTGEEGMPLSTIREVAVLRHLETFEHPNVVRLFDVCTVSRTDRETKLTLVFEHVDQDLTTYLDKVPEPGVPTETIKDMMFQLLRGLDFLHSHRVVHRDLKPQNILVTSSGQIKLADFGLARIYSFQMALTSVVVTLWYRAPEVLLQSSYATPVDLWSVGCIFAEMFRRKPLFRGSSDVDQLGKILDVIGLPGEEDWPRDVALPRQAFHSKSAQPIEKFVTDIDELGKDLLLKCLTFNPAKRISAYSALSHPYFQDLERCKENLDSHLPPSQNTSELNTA
UniProt P30281: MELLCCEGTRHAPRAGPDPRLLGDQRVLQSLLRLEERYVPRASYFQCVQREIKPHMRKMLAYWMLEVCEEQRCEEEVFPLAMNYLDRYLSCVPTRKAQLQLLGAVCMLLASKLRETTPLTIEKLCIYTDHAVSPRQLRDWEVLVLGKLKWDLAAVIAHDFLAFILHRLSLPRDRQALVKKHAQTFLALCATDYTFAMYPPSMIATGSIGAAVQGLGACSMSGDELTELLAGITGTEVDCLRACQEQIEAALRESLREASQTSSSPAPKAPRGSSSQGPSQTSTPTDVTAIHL

How the values were obtained:
[1] = target: CDK4 (human) (UniProt P11802); experiment: co-immunoprecipitation with anti-CDK4 antibody, western blot for Cyclin D3 (FIG. 11F)
[2] = target: CDK6 (human) (UniProt Q00534); experiment: co-immunoprecipitation with anti-CDK6 antibody, western blot for Cyclin D3 (FIG. 11F)
[3] = target: CDK4 (human) (UniProt P11802); experiment: co-immunoprecipitation of CDK4 from MCF10A lysates (24 hr DMSO or 100 nM PF3600), western blot for Cyclin D3
[4] = target: CDK6 (human) (UniProt Q00534); experiment: co-immunoprecipitation of CDK6 from MCF10A lysates (24 hr DMSO or 100 nM PF3600), western blot for Cyclin D3

binding [1]: binds
binding [2]: binds
binding [3]: binds
binding [4]: binds
Substance: Cyclin D3 (from UniProt P30281 1-292)
